This is one part of the list. Single values are uncertain, as repeats are few or missing.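 The apoptosis fraction was the count of cleaved-PARP antibody-stained nuclei relative to all DNA-stained nuclei, imaged in 1,536-well plates. Screening doses were set so most cells survived, and baseline and induced cleaved-PARP levels vary greatly across cell lines.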
How the values were obtained:
Assay in all cases: cleaved PARP positive nuclei fraction relative to DMSO control; melanoma cells; higher = more apoptosis
Details in all cases: library dose: low library concentration; 72 h
WM115 = tested on: WM115
WM1716 = tested on: WM1716
WM1745 = tested on: WM1745
WM3526 = tested on: WM3526
WM3619 = tested on: WM3619
WM451Lu = tested on: WM451Lu

Row | Compound | cleaved PARP positive nuclei fraction (WM115) | cleaved PARP positive nuclei fraction (WM1716) | cleaved PARP positive nuclei fraction (WM1745) | cleaved PARP positive nuclei fraction (WM3526) | cleaved PARP positive nuclei fraction (WM3619) | cleaved PARP positive nuclei fraction (WM451Lu)
1 | Cc1cc(SCc2sc(-c3ccc(C(F)(F)F)c(F)c3)nc2C)ccc1OCC(=O)O + c1cc(-c2cnn3cc(-c4ccc(OCCN5CCCCC5)cc4)cnc23)ccn1 [Dorsomorphin] (first compound 2 µM, partner dose 0.4 µM) | 146% | 63.2% | 125% | 81.4% | 110% | 54.5%
2 | C=C(c1ccc(C(=O)O)cc1)c1cc2c(cc1C)C(C)(C)CCC2(C)C [Bexarotene] + C[As](C)SC[C@H](NC(=O)CC[C@H](N)C(=O)O)C(=O)NCC(=O)O [Darinaparsin] (first compound 2 µM, partner dose 0.4 µM) | 55.2% | 127% | 106% | 141% | 118% | 51.5%
3 | C[C@]12O[C@H](C[C@]1(O)CO)n1c3ccccc3c3c4c(c5c6ccccc6n2c5c31)CNC4=O [Lestaurtinib] + C[C@]1(O)C[C@@H](c2nc(-c3ccc4ccc(-c5ccccc5)nc4c3)c3c(N)nccn32)C1 [OSI906] (first compound 0.004 µM, partner dose 0.4 µM) | 105% | 39.7% | 144% | 129% | 81.2% | 89.3%
4 | Nc1cccc2c1CN(C1CCC(=O)NC1=O)C2=O (stereo not given) [lenalidomide] + C/C(O)=C(\C#N)C(=O)Nc1cc(Br)ccc1Br [LFM-A13] (first compound 1 µM, partner dose 2 µM) | 206% | 134% | 99.1% | 77.8% | 68.3% | 136%
5 | CCCCCCCCCCCCCCCCCCOP(=O)([O-])OC1CC[N+](C)(C)CC1 [Perifosine] + N.N.[Cl][Pt][Cl] [cisplatin] (first compound 0.4 µM, partner dose 1.6 µM) | 97.7% | 150% | 82.7% | 22.2% | 100% | 42.8%
6 | C[C@]12O[C@H](C[C@]1(O)CO)n1c3ccccc3c3c4c(c5c6ccccc6n2c5c31)CNC4=O [Lestaurtinib] + O=C(Oc1ccc([N+](=O)[O-])cc1)N1CCC(C(O)(c2ccc3c(c2)OCO3)c2ccc3c(c2)OCO3)CC1 [JZL184] (first compound 0.004 µM, partner dose 1 µM) | 118% | 74.6% | 186% | 74.9% | 82% | 104%
7 | C[C@]12O[C@H](C[C@]1(O)CO)n1c3ccccc3c3c4c(c5c6ccccc6n2c5c31)CNC4=O [Lestaurtinib] + Clc1ccc(Nc2nnc(Cc3ccncc3)c3ccccc23)cc1 [vatalanib] (first compound 0.004 µM, partner dose 2 µM) | 116% | 136% | 92% | 16% | 87.6% | 71.6%
8 | Nc1ncn([C@H]2C[C@H](O)[C@@H](CO)O2)c(=O)n1 [decitabine] + Cc1cc(SCc2sc(-c3ccc(C(F)(F)F)c(F)c3)nc2C)ccc1OCC(=O)O [GW0742] (first compound 0.1 µM, partner dose 2 µM) | 125% | 58.4% | 107% | 65% | 80% | 121%
9 | CC[C@]1(O)C[C@H]2CN(CCc3c([nH]c4ccccc34)[C@@](C(=O)OC)(c3cc4c(cc3OC)N(C=O)[C@H]3[C@@](O)(C(=O)OC)[C@H](OC(C)=O)[C@]5(CC)C=CCN6CC[C@]43[C@@H]65)C2)C1 [vincristine] + C[C@]12O[C@H](C[C@]1(O)CO)n1c3ccccc3c3c4c(c5c6ccccc6n2c5c31)CNC4=O [Lestaurtinib] (first compound 0.0001 µM, partner dose 0.004 µM) | 760% | 101% | 106% | 99.6% | 204% | 116%
10 | Cn1cc(C2=C(c3cn(C4CCN(Cc5ccccn5)CC4)c4ccccc34)C(=O)NC2=O)c2ccccc21 [Enzastaurin] + Oc1nc(-c2ccc(C(F)(F)F)cc2)nc2c1CSCC2 [XAV939] (first compound 0.8 µM, partner dose 2 µM) | 38.1% | 217% | 196% | 86.3% | 95.7% | 121%
11 | CN1CCN(c2ccc3nc(-c4c(N)c5c(F)cccc5[nH]c4=O)[nH]c3c2)CC1 [Dovitinib] + C/C(O)=C(\C#N)C(=O)Nc1cc(Br)ccc1Br [LFM-A13] (first compound 0.1 µM, partner dose 2 µM) | 119% | 48.3% | 102% | 153% | 110% | 89.4%
12 | c1cc(-c2cnn3cc(-c4ccc(OCCN5CCCCC5)cc4)cnc23)ccn1 [Dorsomorphin] + O=C(Oc1ccc([N+](=O)[O-])cc1)N1CCC(C(O)(c2ccc3c(c2)OCO3)c2ccc3c(c2)OCO3)CC1 [JZL184] (first compound 0.4 µM, partner dose 1 µM) | 69.1% | 67.2% | 106% | 225% | 82.5% | 339%
13 | Cn1cc(C2=C(c3cn(C4CCN(Cc5ccccn5)CC4)c4ccccc34)C(=O)NC2=O)c2ccccc21 [Enzastaurin] + CN(C)S(=O)(=O)c1ccc2c(c1)/C(=C/c1cc3c([nH]1)CCCC3)C(=O)N2 [SU6656] (first compound 0.8 µM, partner dose 0.4 µM) | 96.2% | 52.5% | 95.6% | 183% | 82.8% | 45.3%
14 | Cn1cc(C2=C(c3cn(C4CCN(Cc5ccccn5)CC4)c4ccccc34)C(=O)NC2=O)c2ccccc21 [Enzastaurin] + COc1ccc(C2=N[C@@H](c3ccc(Cl)cc3)[C@@H](c3ccc(Cl)cc3)N2C(=O)N2CCNC(=O)C2)c(OC(C)C)c1 [Nutlin-3] (first compound 0.8 µM, partner dose 0.1 µM) | 65.7% | 54.1% | 94.5% | 18.5% | 82.6% | 77.9%
15 | N.N.[Cl][Pt][Cl] [cisplatin] + O=S(=O)(c1ccccc1)N(CC(F)(F)F)c1ccc(C(O)(C(F)(F)F)C(F)(F)F)cc1 [T0901317] (first compound 1.6 µM, partner dose 1.4 µM) | 77.1% | 7.54% | 186% | 39.3% | 92.2% | 39.8%
16 | C[C@]12O[C@H](C[C@]1(O)CO)n1c3ccccc3c3c4c(c5c6ccccc6n2c5c31)CNC4=O [Lestaurtinib] + Cn1c(Nc2ccc(C(F)(F)F)cc2)nc2cc(Oc3ccnc(-c4ncc(C(F)(F)F)[nH]4)c3)ccc21 [CHIR265] (first compound 0.004 µM, partner dose 0.08 µM) | 401% | 66% | 126% | 229% | 110% | 146%
17 | N.N.[Cl][Pt][Cl] [cisplatin] + Oc1cc(-c2nc(-c3ccccc3)[nH]c2-c2ccncc2)ccc1Cl [L779450] (first compound 1.6 µM, partner dose 0.2 µM) | 156% | 106% | 102% | 226% | 110% | 98.5%
18 | C=CCn1c(=O)c2cnc(Nc3ccc(N4CCN(C)CC4)cc3)nc2n1-c1cccc(C(C)(C)O)n1 + Cc1cc(SCc2sc(-c3ccc(C(F)(F)F)c(F)c3)nc2C)ccc1OCC(=O)O [GW0742] (first compound 0.02 µM, partner dose 2 µM) | 178% | 130% | 119% | 97.8% | 91.3% | 105%
19 | CCN(CC)CCCCNc1ncc2cc(-c3cc(OC)cc(OC)c3)c(NC(=O)NC(C)(C)C)nc2n1 + Cc1cc(SCc2sc(-c3ccc(C(F)(F)F)c(F)c3)nc2C)ccc1OCC(=O)O [GW0742] (first compound 0.1 µM, partner dose 2 µM) | 61.9% | 41.3% | 116% | 90.7% | 75.3% | 85.5%
20 | C[As](C)SC[C@H](NC(=O)CC[C@H](N)C(=O)O)C(=O)NCC(=O)O [Darinaparsin] + Oc1cc(-c2nc(-c3ccccc3)[nH]c2-c2ccncc2)ccc1Cl [L779450] (first compound 0.4 µM, partner dose 0.2 µM) | 175% | 50.2% | 124% | 60.2% | 101% | 137%

Exported in markdown: entries from further up

| Row | Compound | cleaved PARP positive nuclei fraction (WM115) | cleaved PARP positive nuclei fraction (WM1716) | cleaved PARP positive nuclei fraction (WM1745) | cleaved PARP positive nuclei fraction (WM3526) | cleaved PARP positive nuclei fraction (WM3619) | cleaved PARP positive nuclei fraction (WM451Lu) |
| --- | --- | --- | --- | --- | --- | --- | --- |
| 8 | Nc1ncn([C@H]2C[C@H](O)[C@@H](CO)O2)c(=O)n1 [decitabine] + Cc1cc(SCc2sc(-c3ccc(C(F)(F)F)c(F)c3)nc2C)ccc1OCC(=O)O [GW0742] (first compound 0.1 µM, partner dose 2 µM) | 125% | 58.4% | 107% | 65% | 80% | 121% |
| 12 | c1cc(-c2cnn3cc(-c4ccc(OCCN5CCCCC5)cc4)cnc23)ccn1 [Dorsomorphin] + O=C(Oc1ccc([N+](=O)[O-])cc1)N1CCC(C(O)(c2ccc3c(c2)OCO3)c2ccc3c(c2)OCO3)CC1 [JZL184] (first compound 0.4 µM, partner dose 1 µM) | 69.1% | 67.2% | 106% | 225% | 82.5% | 339% |
| 13 | Cn1cc(C2=C(c3cn(C4CCN(Cc5ccccn5)CC4)c4ccccc34)C(=O)NC2=O)c2ccccc21 [Enzastaurin] + CN(C)S(=O)(=O)c1ccc2c(c1)/C(=C/c1cc3c([nH]1)CCCC3)C(=O)N2 [SU6656] (first compound 0.8 µM, partner dose 0.4 µM) | 96.2% | 52.5% | 95.6% | 183% | 82.8% | 45.3% |
| 14 | Cn1cc(C2=C(c3cn(C4CCN(Cc5ccccn5)CC4)c4ccccc34)C(=O)NC2=O)c2ccccc21 [Enzastaurin] + COc1ccc(C2=N[C@@H](c3ccc(Cl)cc3)[C@@H](c3ccc(Cl)cc3)N2C(=O)N2CCNC(=O)C2)c(OC(C)C)c1 [Nutlin-3] (first compound 0.8 µM, partner dose 0.1 µM) | 65.7% | 54.1% | 94.5% | 18.5% | 82.6% | 77.9% |
| 15 | N.N.[Cl][Pt][Cl] [cisplatin] + O=S(=O)(c1ccccc1)N(CC(F)(F)F)c1ccc(C(O)(C(F)(F)F)C(F)(F)F)cc1 [T0901317] (first compound 1.6 µM, partner dose 1.4 µM) | 77.1% | 7.54% | 186% | 39.3% | 92.2% | 39.8% |
| 19 | CCN(CC)CCCCNc1ncc2cc(-c3cc(OC)cc(OC)c3)c(NC(=O)NC(C)(C)C)nc2n1 + Cc1cc(SCc2sc(-c3ccc(C(F)(F)F)c(F)c3)nc2C)ccc1OCC(=O)O [GW0742] (first compound 0.1 µM, partner dose 2 µM) | 61.9% | 41.3% | 116% | 90.7% | 75.3% | 85.5% |
